Laboratory results: PMC11288737
Results are given in words; binding and its absence hold for the method and conditions named. Binding can be weak; no strength is given.

Amino acid sequences for entries named in this document (tags omitted). A change or cut given only in a name is not applied to a line headed by its entry.
UniProt I1JZC3: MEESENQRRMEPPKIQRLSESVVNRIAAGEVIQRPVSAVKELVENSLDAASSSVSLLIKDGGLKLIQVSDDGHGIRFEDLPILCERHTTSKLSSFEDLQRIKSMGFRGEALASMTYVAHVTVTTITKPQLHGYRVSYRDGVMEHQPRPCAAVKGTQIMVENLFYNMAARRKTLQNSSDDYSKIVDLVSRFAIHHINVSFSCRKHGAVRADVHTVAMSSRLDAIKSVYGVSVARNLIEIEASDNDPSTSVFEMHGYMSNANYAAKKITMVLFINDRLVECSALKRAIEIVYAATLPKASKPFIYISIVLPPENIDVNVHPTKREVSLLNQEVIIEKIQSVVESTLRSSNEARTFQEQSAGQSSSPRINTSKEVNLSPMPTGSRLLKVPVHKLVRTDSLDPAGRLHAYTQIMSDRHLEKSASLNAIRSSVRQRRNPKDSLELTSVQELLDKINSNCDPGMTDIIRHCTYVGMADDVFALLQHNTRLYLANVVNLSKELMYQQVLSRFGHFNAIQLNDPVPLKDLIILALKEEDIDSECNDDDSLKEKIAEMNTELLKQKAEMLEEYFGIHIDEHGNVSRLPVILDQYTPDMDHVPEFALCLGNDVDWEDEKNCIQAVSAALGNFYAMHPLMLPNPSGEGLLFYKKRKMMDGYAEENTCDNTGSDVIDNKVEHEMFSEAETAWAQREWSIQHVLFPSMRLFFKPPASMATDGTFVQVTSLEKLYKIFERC
UniProt A0A0R0HRB2: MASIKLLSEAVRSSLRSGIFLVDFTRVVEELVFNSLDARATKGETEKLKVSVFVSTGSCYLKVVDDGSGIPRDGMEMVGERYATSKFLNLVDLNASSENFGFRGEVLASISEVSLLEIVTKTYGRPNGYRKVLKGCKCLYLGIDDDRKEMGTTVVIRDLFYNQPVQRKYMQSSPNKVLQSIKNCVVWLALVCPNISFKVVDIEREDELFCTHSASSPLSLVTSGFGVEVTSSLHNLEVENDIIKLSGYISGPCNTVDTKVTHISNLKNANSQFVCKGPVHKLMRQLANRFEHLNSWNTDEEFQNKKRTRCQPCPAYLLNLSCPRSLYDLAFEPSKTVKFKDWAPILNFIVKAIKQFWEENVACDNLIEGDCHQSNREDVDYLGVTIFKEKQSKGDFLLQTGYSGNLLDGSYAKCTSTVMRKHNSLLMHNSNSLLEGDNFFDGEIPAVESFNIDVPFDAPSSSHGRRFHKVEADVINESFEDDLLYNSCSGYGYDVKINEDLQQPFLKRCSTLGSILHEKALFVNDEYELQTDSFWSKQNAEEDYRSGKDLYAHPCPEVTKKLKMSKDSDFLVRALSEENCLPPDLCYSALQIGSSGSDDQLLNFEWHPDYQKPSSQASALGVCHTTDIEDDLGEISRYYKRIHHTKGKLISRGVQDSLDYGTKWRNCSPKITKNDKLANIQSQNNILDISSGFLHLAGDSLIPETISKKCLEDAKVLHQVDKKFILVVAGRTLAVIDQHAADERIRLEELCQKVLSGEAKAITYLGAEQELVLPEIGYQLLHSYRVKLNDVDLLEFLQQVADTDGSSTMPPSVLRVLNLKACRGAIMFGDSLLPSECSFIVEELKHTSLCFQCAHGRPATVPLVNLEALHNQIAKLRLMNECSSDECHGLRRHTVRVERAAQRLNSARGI

Target: GST-GmMLH1 (soybean (Glycine max)) (UniProt I1JZC3)
Assay: pull-down; 2 µg of GST- or His-tagged proteins mixed in 400 µL binding buffer at 4 °C for 4 h, then GST resin at 4 °C for 2 h; eluted proteins detected with anti-GST or anti-His; both purified

binding: binds
Substance: His-GmMLH3B (from UniProt A0A0R0HRB2)
